From patent publication US20130237684A1 come the findings set out here.

Amino acid sequences for entries named in this document (tags omitted). Residues count along the entry.
UniProt P0CG63, residues 1-76: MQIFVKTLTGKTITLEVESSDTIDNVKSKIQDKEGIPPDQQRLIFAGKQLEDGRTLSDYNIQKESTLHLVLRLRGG

Numbering of substitutions follows the chain as printed. These are yes or no findings as the source states them, for the method shown. Some entries that bind do so weakly or less than the wild type.

The target in this assay is Yeast ubiquitin (Sigma) (yeast) (UniProt P0CG63). Nature of the assay: clone isolated by phage display selection on ubiquitin; listed as ubiquitin-binding monobody.

B1: ubiquitin-binding monobody 422 (Fn3 with BC loop ARWTL and FG loop RRWWW), phage clone (designed binder, not shown: large carriers; small tags and cut ends)
chain: VSDVPRDLEVVAATPTSLLISWDAPARWTLYYRITYGETGGNSPVQEFTVPGSKSTATISGLKPGVDYTITVYAVTRRWWWSKPISINYRT
Take B1: the binding entry is recorded as “binds”.

B2: ubiquitin-binding monobody 424 (Fn3 with BC loop GQRTF and FG loop RRWWA), phage clone (designed binder, not shown: large carriers; small tags and cut ends)
chain: B1 chain with A26G, R27Q, W28R, L30F, W81A
Regarding B2, the binding result is reported as “binds”.
